According to article PMC10163288:
This is one part of the list.

B1: il2ra_site1_2b5i_normal_mot_HHH_b1_00432_000000039_0001_1_18_H_._HHH_b1_07635_af2_0001_0000400022_0000001_0_af2pred_0001_af2pred (protein)
chain: SSSSDEKEEEVIELAKEAIEKLEKSGSERRARALRRALEALEEEGDPKLLEELEHLVRAILSSSS
B2: il2ra_site2_2erj_sap_25_mot_64bd02d26d05ce9f1a62b616cea0b888_0001_af2_000000029_0001_36_49_H_._HHH_b1_00394_0001_0000200011_0000001_1_0001_af2pred_0001_1_af2pre … (protein)
chain: SSSSSDEEAREEAEELEEEAHKVSLREAMKLLEEIDKLAHEYNDPEIEKIAEELFRRLSSSSSSS
B3: il2ra_site2_2erj_normal_mot_HHH_b1_06157_000000296_0001_22_38_H_._HHH_b1_03967_0001_0000200017_0000001_0 (protein)
chain: SSSSSDLLERAYELAVILLHLVSRNDREEFEEISEEFREIVERLQSEAAREALELLEEELSSSSS
B4: il2ra_site1_3nfp_sap_6_mot_HHH_b1_07078_000000231_0001_39_52_H_._HHH_b1_06581_af2_0001_0000200017_0000001_0_0001 (protein)
chain: SSSSNEEVRELWERVKEADRLFKEGDKEEARRVLEELLKLLEELGDEKAAEQVEFFLEEAKSSSS
B5: il2ra_site2_3nfp_normal_mot_HHH_b1_00660_af2_000000199_0001_40_57_H_._HHH_b1_05706_0001_0000200024_0000001_1 (protein)
chain: SSSSDKEKEKLLEELKEIVENNDEEEFRRVAAEIAHLAYENRDHELFAALAELLYLFAQLSSSSS
B6: il2ra_site2_3nfp_normal_mot_HHH_b1_03851_000000147_0001_21_38_H_._HHH_b1_03513_af2_0001_0000200012_0000001_0 (protein)
chain: SSSSSDEELEQLIREIEEALERGDRDLVLELLLELAELALELDDEEADRFVLEAYARLRSSSSSS
B7: il2ra_site1_2b5i_sap_12_mot_a7d4ab743ae57deeac5d741f7278d18b_0001_af2_000000162_0001_36_49_H_._22a6def34709f75428da830834b17cd3_0001_1_0001_0000200015_0000001_0 … (protein)
chain: SSSSSPEVEALIAEAKRLAAAGKWREAFEALQKAHDLASAAGDEEEEKRVEDVFAELSAKLSSSS
B8: il2ra_site1_2b5i_sap_17_mot_HHH_b1_03148_af2_000000174_0001_43_57_H_._HHH_b1_08270_af2_0001_0000100002_0000001_0_0001_af2pred_0001_af2pred_1 (protein)
chain: SSSSDEVFQRVLELYQEASKLWRNGNPEEARELIERALELAEENNDERLREQLEKAQELLSSSSS
B9: il2ra_site1_1z92_normal_mot_HHH_b2_01902_af2_000000252_0001_25_40_H_._HHH_b1_01554_0001_0000100013_0000001_0 (protein)
chain: SSSSSDEKAAEAIVRVLVQVARLSEEQERLLEELAEELVERGYSELEIMKILDRLAAELQSSSSS
B10: il2ra_site1_1z92_sap_25_mot_1581cc1c700002558836ca695aafbf97_0001_1_af2_000000099_0001_17_32_H_._130e9a9f23395f2cef41dbaa24aede50_0001_af2_0001_0000300018_00000 … (protein)
chain: SSSSSDSAELIVRSAVELAGLSEEQEEELERVAEELKERGVSYEEIIKILDKVALELAENSSSSS

biological target: il2ra, P01589; assay: yeast display titration

Apparent Kd, inactive:
B1 no binding seen
B2 no binding seen
B3 no binding seen
B4 no binding seen
B5 no binding seen
B6 no binding seen
B7 no binding seen
B8 no binding seen
B9 no binding seen
B10 > 988 nM
